Literature values, collected in patent publication US20240288428A1, “RNA […]” (priority 2022, published 2024).
At least one structure is not confirmed: it was looked up by name or label, or the drawing left a doubt.

System: COVID-19
Conditions: WHO Solidarity Trial Consortium, Lancet 2022

CCC(CC)COC(=O)[C@H](C)N[P@](=O)(OC[C@H]1O[C@@](C#N)(c2ccc3c(N)ncnn23)[C@H](O)[C@@H]1O)Oc1ccccc1 [remdesivir, Remdesivir]
effect on COVID-19 patients on ventilation: no significant effect
